Measurements reported in patent US20250295639A1, “METHODS FOR TREATING HEART DISEASES” (Cytokinetics, Incorporated, priority 2024, published 2025).

Test system: patients with symptomatic oHCM
Assay: SEQUOIA-HCM: cardiac biomarkers NT-proBNP and hs-cTnI
Format: in vivo, human
Details: 24-week treatment period
Excerpt: A further exploratory objective of this trial was to evaluate the effect of aficamten on biomarker levels, as determined by changes from baseline values in NT-pro-BNP, hs-cardiac-TnI and other biomarkers through Week 24. Cardiac biomarkers. Aficamten treatment led to an immediate and significant reduction in both NT-proBNP and hs-cTnI, with substantial lowering of both biomarkers by week 2. […] Biomarker lowering persisted to week 24 when the relative reduction from baseline was-80% (95% CI-83%, −77%, p<0.001) in NT-proBNP and −43% (−49%, […], p<0.001) in hs-cTnI. […] Serum levels of NT-proBNP decreased from baseline to week 24 from 735 (604, 894) ng/L to 143 (120, 171) ng/L in patients receiving aficamten and remained unchanged from 710 (587, 859) ng/L to 717 (596, 863) ng/L in those receiving placebo, while hs-troponin decreased from 17.1 (14.1, 20.8) ng/L to 9.5 (8.0, 11.3) ng/L with aficamten and remained unchanged from 16.6 (13.3, 20.7) to 16.5 (13.7, 19.9) ng/L in placebo (P<0.001 for both comparisons compared to placebo). […] In contrast hs-cTnI reduction reflected 3% (−18%, 30%) of aficamten's effect on pVO2.

CCc1nc(-c2ccc3c(c2)CC[C@H]3NC(=O)c2cnn(C)c2)no1 [aficamten, (R)—N-(5-(5-ethyl-1,2,4-oxadiazol-3-yl)-2,3-dihydro-1H-inden-1-yl)-1-methyl-1H-pyrazole-4-carboxamide]
share of aficamten's effect on pVO2 reflected by NT-proBNP reduction (mediation analysis): 101%
share of aficamten's effect on pVO2 reflected by hs-cTnI reduction (mediation analysis): 3%
